From PubChem BioAssay AID2685 (National Center for Advancing Translational Sciences (NCATS), 2010)
The other results are listed elsewhere or left out. These are further read-outs of the screen, such as a control signal, another cell line or another target. No call is given for them. Compounds called inactive in the main read-out are mostly missing here. Words in brackets tell the shape of the fitted curve; partial curves, single points and poor fits give uncertain potencies.

Experiment: qHTS Assay for Lipid Storage Modulators in Drosophila S3 Cells;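 as to cell number change: cells counted by Cell Tracker Red CMTPX staining in the red channel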
Conditions: BODIPY lipid droplet fluorescence, 18-24 h; for cell number change: measured here: cell count max response, cells fed with added oleic acid
Procedure, shortened: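 Laser-scanning cytometry quantifies lipid droplet accumulation (500–530 nm total intensity; droplet/cell object ratio) in oleic acid-fed (400 uM added) Drosophila S3 cells treated with a concentration series. 20 uM Triacsin C defined 100% inhibition.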

[1] = measured here: cell number channel AC50, cells fed with added oleic acid
[2] = measured here: lipid fluorescence (Fed channel) AC50, cells fed with added oleic acid

Structure (SMILES)	cell number change	AC50 [1]	AC50 [2]
CC(=O)c1ccc(N2CCN(C(=S)Nc3ccc(Oc4ccccc4)cc3)CC2)cc1	18.3%	4.61 µM [rising, single point]	
Cc1ccccc1-c1nc(CS(=O)(=O)CC(=O)NCCCN2C(C)CCCC2C)c(C)o1 (stereo not drawn)	11.4%	0.13 µM [falling, full curve, poor fit]	0.731 µM [falling, full curve, poor fit]
C=C(C)C1CC=C(C)/C(=N/NC(=O)COc2cccc(C)c2)C1 (stereo not drawn)	-27.2%		8.2 µM [falling, partial curve]
Cc1ccc(-c2nnc(-c3ccc(NC(=O)c4cccs4)cc3)o2)cc1	-10.2%		
COc1ccc(C(=O)NCCS(=O)(=O)N2CCC3(CC2)OCCO3)cc1	41.3%	29.1 µM [rising, single point]	
CCNC(=O)C1CC(=O)N(Cc2ccc(F)cc2)C(=Nc2ccc(OC)cc2)S1 (stereo not drawn)	-4.77%		1.64 µM [rising, partial curve, poor fit]
CCOC(=O)c1sc(=N)n(-c2ccc(OC)cc2)c1C	-26.2%	0.0058 µM [falling, full curve, poor fit]	
CCN(CC)C(=O)c1c2c(nc3ccccc13)-c1ccccc1CC2		2.91 µM [rising, single point]	0.82 µM [rising, full curve, poor fit]
CCOc1nc(NCCc2ccc(OC)c(OC)c2)nc(N2CCN(c3ccc(OC)cc3)CC2)n1	16.1%	0.103 µM [rising, full curve, poor fit]	
N#Cc1cnn(-c2ccccc2)c1N	3.36%		18.4 µM [rising, single point]
CCCNC(=O)c1ccc(N2CCC3(CC2)CC(c2ccccc2)=NO3)c(N)c1	5.09%		0.259 µM [rising, full curve, poor fit]
O=C(Nc1ccc2oc(=O)ccc2c1)c1cc([N+](=O)[O-])ccc1N1CCOCC1	13%	6.51 µM [rising, single point]	3.66 µM [rising, single point]
Cc1cc(O)c(C2=Nc3ccccc3SC(c3ccc(Cl)cc3)C2)c(=O)o1 (stereo not drawn)	10.5%		29.1 µM [rising, partial curve, poor fit]
CCOc1ccc(-c2ccc(C=O)o2)c([N+](=O)[O-])c1	27.4%		14.6 µM [rising, single point]
CCc1cccc(C)c1N=Cc1c(O)c2ccccc2oc1=O	-4.99%		29.1 µM [falling, single point]
C=C(C)COc1ccc2c(C)c(CC(=O)OC)c(=O)oc2c1C		0.58 µM [falling, single point]	0.58 µM [falling, single point]
COCc1[nH]nc2c1C(c1ccnc3ccccc13)C(C#N)=C(N)O2 (stereo not drawn)	-20.6%		0.651 µM [rising, partial curve, poor fit]
N#C/C(=C/c1cccn1-c1cccc(C(=O)O)c1)c1ccc(F)cc1	20.6%	0.146 µM [falling, full curve, poor fit]	
CCOc1ccc2ccccc2c1C(=O)N[C@@H]1C(=O)N2[C@@H]1SC(C)(C)[C@@H]2C(=O)O	-11.8%		6.51 µM [falling, single point]

Structure (SMILES)	cell number change	AC50 [1]	AC50 [2]
COc1ccc(N2CCN(C(=S)NCc3ccc(C)cc3)CC2)cc1	-14.1%		
CC(=O)N1c2ccccc2C2(O)N=C(C)SC12 (stereo not drawn)	19.4%		2.59 µM [rising, full curve, poor fit]
COc1ccc(/C=C/C(=O)NC(=S)NNC(=O)c2cccnc2)cc1	-13.9%		
CCCC[C@@H]1C[C@H]1[C@@H](NC(=O)c1ccccc1)c1ccccc1C(F)(F)F	11.9%		7.31 µM [rising, partial curve]
COc1cccc(C2C(C(=O)c3sc(C)nc3C)=C(O)C(=O)N2CCN2CCOCC2)c1 (stereo not drawn)	3.98%		0.411 µM [falling, single point]
CCc1ccc(C(=O)Cn2cnc3cc([N+](=O)[O-])ccc3c2=O)cc1	20.8%		6.51 µM [rising, partial curve]
COc1ccc(-c2csc(N3CCN(C(=O)c4ccco4)CC3)n2)cc1	26.6%		6.51 µM [rising, single point]
CC(C)Cn1c(SCC(=O)Nc2ccc3[nH]c(=O)[nH]c3c2)nc2ccccc2c1=O	42.6%	2.59 µM [rising, full curve]	
O=C(Nc1ccc2c(c1)OCO2)C(=O)c1c[nH]c2ccccc12	72%	11.6 µM [rising, partial curve]	1.64 µM [rising, partial curve, poor fit]
COCCn1cc(C(=O)NCc2ccco2)c2c3ccccc3n(C)c2c1=O	3.45%		0.00517 µM [rising, full curve, poor fit]
CC1=Nc2cccc3cccc(c23)N1	24.8%	6.51 µM [rising, single point]	3.66 µM [rising, partial curve, poor fit]
Nc1nc(NCc2ccco2)nc(N2CCCCCC2)c1[N+](=O)[O-]	-5.49%		
Cc1cccc(NS(=O)(=O)c2cc(C(=O)N3CCOCC3)ccc2Cl)c1		0.731 µM [falling, full curve, poor fit]	0.58 µM [falling, single point]
O=C(Cc1cccs1)Nc1ccccn1	11.6%		0.651 µM [rising, single point]
COc1ccc(S(=O)(=O)N(C)c2ccc(C(=O)NCc3ccncc3)cc2)cc1	-19.8%	0.82 µM [rising, partial curve]	6.51 µM [rising, single point]
CCOC(=O)C1CCN(C(=O)Cn2nc(C)n3c(cc4cc(C)ccc43)c2=O)CC1	-17%		
CC1CCCC(C)N1C(=O)COc1ccc(C(=O)N/N=C/c2ccc(C(=O)O)cc2)cc1 (stereo not drawn)	-66.4%		
COc1cc(-c2c(C#N)c(N)nc3c2CCCC3)ccc1O	14.6%	2.91 µM [rising, single point]	0.411 µM [rising, partial curve]
Cn1c(SCC(=O)Nc2cccc(S(=O)(=O)NC3=NCCCCC3)c2)nnc1-c1ccccc1	30.8%	13 µM [rising, partial curve, poor fit]	2.06 µM [rising, partial curve, poor fit]

Structure (SMILES)	cell number change	AC50 [1]	AC50 [2]
CCc1nc2c(sc3nc4c(cc32)COC(C)(C)C4)c(=O)n1Cc1ccco1	-14.1%		29.1 µM [falling, single point]
CC[n+]1c(/C=C2\C=C(C)CC(C)(C)C2)sc2ccccc21	8.9%		29.1 µM [rising, single point]
CC(C)C(NC(=O)c1ccc(F)cc1)C(=O)N1CCC1 (stereo not drawn)	11.2%		6.51 µM [falling, single point]
O=C(c1ccccc1)c1cnc(-c2ccccc2)s1	7.73%	0.411 µM [falling, partial curve, poor fit]	
CC1(C)Cn2c(nnc2-c2cccc(O)c2)S1	0.516%		0.103 µM [falling, full curve, poor fit]
CC1=C(C(=O)Nc2ccccc2C(=O)NC2CCCCC2)SCCO1	7.78%		
COc1ccc(NC(=O)CN(C)C(=O)c2n[nH]c3ccccc23)cc1	21.3%		
CCOc1cc(N2CCOCC2)c(OCC)cc1NC(=O)[C@H](C)N1C(=O)C2CC=CCC2C1=O (stereo partly drawn)	-17.5%		0.116 µM [falling, full curve, poor fit]
COc1ccc(N(CC(=O)N/N=C(\C)c2ccccc2)S(=O)(=O)c2ccccc2)cc1			3.26 µM [rising, partial curve]
CC(=O)C1=C(O)C(=O)N(Cc2ccccc2)C1c1cccs1 (stereo not drawn)	-69.4%	23.1 µM [falling, single point]	1.64 µM [falling, full curve]
COc1cccc(NC(=O)CN2C(=O)NC3(CCCC3)C2=O)c1	17.3%		0.82 µM [rising, full curve, poor fit]
CCC(C)Sc1cccc(-c2nc3ccc(Cl)cn3c2NCc2ccccc2)c1 (stereo not drawn)	-0.33%	0.00411 µM [falling, full curve, poor fit]	0.0058 µM [falling, full curve, poor fit]
COc1ccc(-c2c(-c3ccc(OCC(=O)NN)cc3O)n[nH]c2C)cc1	2.36%	0.146 µM [falling, full curve, poor fit]	
Cc1ccc(S(=O)(=O)N2CCN(C(=O)CSc3nnc(C)c(=O)[nH]3)CC2)cc1	3.02%		0.651 µM [falling, full curve, poor fit]
COc1ccc(-c2cc(-c3n[nH]c(=S)n3-c3ccccc3Cl)[nH]n2)cc1	62.5%	29.1 µM [rising, single point]	23.1 µM [rising, single point]
NNc1nc2ccccc2nc1C(F)(F)F			6.51 µM [falling, single point]
O=C(c1cc(C2CC2)nn1-c1ccccc1)N1CCN(c2ccccn2)CC1		6.51 µM [rising, single point]	
CC(=O)N/N=C(/C)c1ccc(NC(=O)c2csc(C)c2C)cc1	8.98%		
Cn1nnnc1SCCNCc1ccccc1OCc1ccc(Cl)cc1	-81.6%	4.61 µM [falling, single point]	0.164 µM [rising, full curve, poor fit]

Rewritten bar-delimited: 3 of the compounds above
Structure (SMILES) | cell number change | AC50 [1] | AC50 [2]
CC[n+]1c(/C=C2\C=C(C)CC(C)(C)C2)sc2ccccc21 | 8.9% |  | 29.1 µM [rising, single point]
COc1cccc(NC(=O)CN2C(=O)NC3(CCCC3)C2=O)c1 | 17.3% |  | 0.82 µM [rising, full curve, poor fit]
COc1ccc(-c2c(-c3ccc(OCC(=O)NN)cc3O)n[nH]c2C)cc1 | 2.36% | 0.146 µM [falling, full curve, poor fit] | 
